Our source for the binding values is article PMC6721388.

Protein sequences, listed by entry. Tags and fused reporters are not part of them.
UniProt Q09472: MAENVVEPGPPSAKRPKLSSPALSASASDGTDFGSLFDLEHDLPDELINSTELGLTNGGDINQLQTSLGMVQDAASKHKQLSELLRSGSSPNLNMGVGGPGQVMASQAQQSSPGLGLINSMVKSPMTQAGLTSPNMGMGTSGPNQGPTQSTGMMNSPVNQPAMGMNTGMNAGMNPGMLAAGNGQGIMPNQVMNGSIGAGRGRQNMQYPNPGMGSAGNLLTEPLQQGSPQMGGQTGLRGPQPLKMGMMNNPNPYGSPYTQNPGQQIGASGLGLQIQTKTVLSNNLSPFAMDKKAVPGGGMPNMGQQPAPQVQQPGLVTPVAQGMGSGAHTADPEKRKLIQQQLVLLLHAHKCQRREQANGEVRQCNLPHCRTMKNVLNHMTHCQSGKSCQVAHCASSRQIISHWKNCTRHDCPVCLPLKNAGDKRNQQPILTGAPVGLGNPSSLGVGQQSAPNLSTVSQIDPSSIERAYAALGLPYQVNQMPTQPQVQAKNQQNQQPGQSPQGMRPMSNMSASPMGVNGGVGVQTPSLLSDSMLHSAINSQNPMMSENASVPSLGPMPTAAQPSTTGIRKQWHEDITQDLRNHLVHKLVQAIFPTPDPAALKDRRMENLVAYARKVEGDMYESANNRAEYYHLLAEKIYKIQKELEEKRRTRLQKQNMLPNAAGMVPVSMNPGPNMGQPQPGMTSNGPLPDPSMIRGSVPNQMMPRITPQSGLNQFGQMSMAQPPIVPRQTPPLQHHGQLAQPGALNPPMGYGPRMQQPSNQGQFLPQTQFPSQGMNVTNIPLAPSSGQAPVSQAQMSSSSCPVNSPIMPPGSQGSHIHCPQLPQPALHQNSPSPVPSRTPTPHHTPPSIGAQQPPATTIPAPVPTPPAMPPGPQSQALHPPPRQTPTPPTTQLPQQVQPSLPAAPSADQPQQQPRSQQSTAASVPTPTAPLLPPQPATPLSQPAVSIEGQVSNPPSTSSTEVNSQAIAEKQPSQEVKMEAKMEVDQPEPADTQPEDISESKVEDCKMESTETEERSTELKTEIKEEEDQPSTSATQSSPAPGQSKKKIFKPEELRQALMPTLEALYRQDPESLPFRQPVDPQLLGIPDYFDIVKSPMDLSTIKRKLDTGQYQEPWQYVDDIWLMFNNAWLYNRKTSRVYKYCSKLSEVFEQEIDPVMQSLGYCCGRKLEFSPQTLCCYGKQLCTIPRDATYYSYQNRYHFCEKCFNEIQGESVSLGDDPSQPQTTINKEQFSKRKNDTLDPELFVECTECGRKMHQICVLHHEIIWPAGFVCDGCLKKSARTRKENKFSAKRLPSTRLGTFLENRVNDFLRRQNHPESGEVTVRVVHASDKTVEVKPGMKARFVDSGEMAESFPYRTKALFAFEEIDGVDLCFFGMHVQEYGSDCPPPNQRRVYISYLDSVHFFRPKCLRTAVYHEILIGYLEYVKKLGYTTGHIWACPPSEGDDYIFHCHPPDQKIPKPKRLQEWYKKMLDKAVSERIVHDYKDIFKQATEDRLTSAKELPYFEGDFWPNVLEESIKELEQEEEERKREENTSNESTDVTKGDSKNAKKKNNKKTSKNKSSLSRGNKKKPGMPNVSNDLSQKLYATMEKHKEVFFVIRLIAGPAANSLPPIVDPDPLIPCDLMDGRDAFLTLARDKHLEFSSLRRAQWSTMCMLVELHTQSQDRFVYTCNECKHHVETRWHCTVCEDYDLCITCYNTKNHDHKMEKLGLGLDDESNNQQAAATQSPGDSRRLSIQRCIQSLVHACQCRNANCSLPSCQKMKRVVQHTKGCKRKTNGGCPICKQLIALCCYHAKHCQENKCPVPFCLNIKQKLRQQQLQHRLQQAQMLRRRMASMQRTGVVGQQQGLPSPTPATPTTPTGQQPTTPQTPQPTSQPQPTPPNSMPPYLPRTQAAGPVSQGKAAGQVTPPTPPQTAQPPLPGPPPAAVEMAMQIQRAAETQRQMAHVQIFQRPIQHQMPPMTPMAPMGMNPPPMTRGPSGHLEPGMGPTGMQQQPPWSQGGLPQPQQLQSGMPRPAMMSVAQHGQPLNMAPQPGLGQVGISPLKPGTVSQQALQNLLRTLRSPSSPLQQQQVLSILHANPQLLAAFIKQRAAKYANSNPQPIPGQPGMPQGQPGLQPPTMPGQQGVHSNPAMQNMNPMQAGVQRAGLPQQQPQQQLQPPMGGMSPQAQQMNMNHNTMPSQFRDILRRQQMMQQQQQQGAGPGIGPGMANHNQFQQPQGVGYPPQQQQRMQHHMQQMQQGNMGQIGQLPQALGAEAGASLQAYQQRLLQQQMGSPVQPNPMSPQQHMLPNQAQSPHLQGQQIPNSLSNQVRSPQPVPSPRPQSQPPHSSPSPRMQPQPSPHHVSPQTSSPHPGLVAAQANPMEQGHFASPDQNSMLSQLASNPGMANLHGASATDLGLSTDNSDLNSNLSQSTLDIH
UniProt O43524: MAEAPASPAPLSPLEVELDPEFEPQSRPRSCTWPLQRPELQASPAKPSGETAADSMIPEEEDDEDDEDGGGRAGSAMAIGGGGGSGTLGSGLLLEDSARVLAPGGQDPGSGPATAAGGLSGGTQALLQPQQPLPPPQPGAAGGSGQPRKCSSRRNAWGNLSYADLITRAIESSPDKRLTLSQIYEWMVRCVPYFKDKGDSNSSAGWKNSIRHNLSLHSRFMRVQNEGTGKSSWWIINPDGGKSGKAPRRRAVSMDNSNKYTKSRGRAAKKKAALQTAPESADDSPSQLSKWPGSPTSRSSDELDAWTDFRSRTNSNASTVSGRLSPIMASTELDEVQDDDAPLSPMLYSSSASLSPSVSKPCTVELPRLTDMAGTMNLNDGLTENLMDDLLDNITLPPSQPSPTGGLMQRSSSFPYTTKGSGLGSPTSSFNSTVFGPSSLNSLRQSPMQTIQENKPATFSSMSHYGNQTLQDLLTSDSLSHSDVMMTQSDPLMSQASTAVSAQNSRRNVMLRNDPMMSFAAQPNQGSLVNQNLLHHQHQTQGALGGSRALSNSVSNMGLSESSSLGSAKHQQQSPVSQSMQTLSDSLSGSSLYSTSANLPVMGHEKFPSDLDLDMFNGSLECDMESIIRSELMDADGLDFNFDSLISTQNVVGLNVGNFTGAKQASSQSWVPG

Experiment [1] addresses wild-type EP300 (pcDNA3.1-p300) (human) (UniProt Q09472). In words: co-IP; lysates of BT474 cells transiently transfected with EP300 or EP300 HAT mutant; IP with anti-EP300 antibody, blot for FOXO3 (Figure 4B, lower panel).
The target of experiment [2] is Forkhead Box O3 (FOXO3) (human (endogenous in BT474)) (UniProt O43524). In words: co-IP; lysates of BT474 cells transiently transfected with EP300 or EP300 HAT mutant; IP with anti-FOXO3 antibody, blot for EP300 (Figure 4B, upper panel); IP lysis buffer 1% NP-40, 150 mM NaCl, 50 mM Tris-HCl pH 7.4, 5 mM EDTA; 4 °C overnight.
The target is the same in experiment [3]. Description: proximity ligation; Duolink in situ PLA with EP300 and FOXO3 antibodies in BT474 cells treated with 1 µM lapatinib for 0, 4 and 8 h; confocal microscopy.
Experiment [4] shares this target. In words: condition: only in lapatinib-resistant BT474-LapR cells; proximity ligation; Duolink in situ PLA with EP300 and FOXO3 antibodies in lapatinib-resistant BT474-LapR cells treated with 1 µM lapatinib for 0, 4 and 8 h; confocal microscopy.

Results are given in words; binding and its absence hold for the method and conditions named. Binding seen in cells or lysates may run through a third protein. Some binding calls cover weakened binding; strength is not graded here.

For the substance “Forkhead Box O3 (FOXO3) (from UniProt O43524 1-673)”, the binding entry in experiment [1] was “binds”.

Regarding “wild-type EP300 (pcDNA3.1-p300) (from UniProt Q09472 1-2414) (enzyme)”, in experiment [2], the binding result was “binds”.

For the substance “EP300 (from UniProt Q09472 1-2414) (enzyme)”, the binding result in experiment [3] was “binds”; in experiment [4], “no binding”.
